The results in this text go back to PMC9508853.

Assay [1] concerns the target T1, Cactin/Cay1 (S. pombe) (UniProt O14342).
T1 sequence: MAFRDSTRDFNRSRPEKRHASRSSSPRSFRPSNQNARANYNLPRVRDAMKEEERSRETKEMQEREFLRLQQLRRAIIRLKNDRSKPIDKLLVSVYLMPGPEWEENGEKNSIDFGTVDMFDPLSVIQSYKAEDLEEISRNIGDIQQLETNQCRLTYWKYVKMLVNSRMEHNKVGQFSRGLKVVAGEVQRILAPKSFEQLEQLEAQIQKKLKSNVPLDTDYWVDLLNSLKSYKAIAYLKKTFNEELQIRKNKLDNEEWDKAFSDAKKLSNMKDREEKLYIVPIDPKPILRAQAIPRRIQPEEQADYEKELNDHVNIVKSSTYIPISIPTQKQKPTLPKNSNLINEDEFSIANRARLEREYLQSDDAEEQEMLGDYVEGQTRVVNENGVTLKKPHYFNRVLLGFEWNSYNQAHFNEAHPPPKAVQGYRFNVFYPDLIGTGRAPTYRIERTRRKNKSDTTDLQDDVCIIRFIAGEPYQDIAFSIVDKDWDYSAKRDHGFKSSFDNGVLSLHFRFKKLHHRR
Briefly: two-hybrid; yeast two-hybrid assays (Supplementary Figure S11B); bait and prey orientation and conditions not given.

The target of assay [2] is T2, Tls1 (S. pombe) (UniProt Q10148).
T2 sequence: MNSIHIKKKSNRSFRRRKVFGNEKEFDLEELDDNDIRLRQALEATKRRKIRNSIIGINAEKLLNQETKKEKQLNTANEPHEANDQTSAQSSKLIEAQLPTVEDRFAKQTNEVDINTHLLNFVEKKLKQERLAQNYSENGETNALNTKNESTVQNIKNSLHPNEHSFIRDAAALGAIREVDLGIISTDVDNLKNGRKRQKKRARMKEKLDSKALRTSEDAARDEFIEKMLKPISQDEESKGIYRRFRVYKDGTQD
The assay is described as above.

Results are given in words; binding and its absence hold for the method and conditions named.

B1: Sde2 (protein, UniProt O14113 1-263)
chain: MECKTVFLNGDFLKNSVNVNLNRLATVETLLRHVLGDSYETVLERAYLTHQSRIVHPDIQLCKLEGKSTSAHLNLTLCTRVLGGKGGFGSQLRAAGGRMSKKRNEQENQDSCRDLDGNRLGTIRQAKELSEYLAKKPAETRAKKEAKKQKLNKVLAADSSSSRFDDHEYLEDLEQSVSNVRDAFQNSLLYRRGSTSASSFSSGSNGATTDEPAEKEARNNNSSINSWSRRMQASESSNEAEGEDSESQTSKSLYEWDDPLYGL
Consider B1, for which the binding result in assay [1] and in assay [2] was “no binding” throughout.

B2: Cactin/Cay1 (protein, UniProt O14342 1-517)
chain: MAFRDSTRDFNRSRPEKRHASRSSSPRSFRPSNQNARANYNLPRVRDAMKEEERSRETKEMQEREFLRLQQLRRAIIRLKNDRSKPIDKLLVSVYLMPGPEWEENGEKNSIDFGTVDMFDPLSVIQSYKAEDLEEISRNIGDIQQLETNQCRLTYWKYVKMLVNSRMEHNKVGQFSRGLKVVAGEVQRILAPKSFEQLEQLEAQIQKKLKSNVPLDTDYWVDLLNSLKSYKAIAYLKKTFNEELQIRKNKLDNEEWDKAFSDAKKLSNMKDREEKLYIVPIDPKPILRAQAIPRRIQPEEQADYEKELNDHVNIVKSSTYIPISIPTQKQKPTLPKNSNLINEDEFSIANRARLEREYLQSDDAEEQEMLGDYVEGQTRVVNENGVTLKKPHYFNRVLLGFEWNSYNQAHFNEAHPPPKAVQGYRFNVFYPDLIGTGRAPTYRIERTRRKNKSDTTDLQDDVCIIRFIAGEPYQDIAFSIVDKDWDYSAKRDHGFKSSFDNGVLSLHFRFKKLHHRR
For B2, the binding entry in assay [2] is reported as “no binding”.
